In patent US20130039922A1:

Target: mouse MMP-9 catalytic domain (mouse)
Assay: ELISA, biotinylated MMP-9 on streptavidin plate, soluble antibody, peroxidase anti-mouse IgG

binding: binds
B1: SDS3 (antibody, V domains shown)
VH: VQLQESGGGLVKPGGSLKLSCAASGFAFSTYDMSWIRQTPEKRLEWVATISSGGSYTYYPDSVKGRFTISKDNARNTLYLQMSSLRSGDTALYYCTRFRYDGWYFDVWGQG
VL: DVLITQTPLSLPVSLGDQASISCRSSQSIVHSNGNTFLEWYLQKPGQSPKLLIYKVSNRFSGVPDRFSGSGSGTDFTLKISRVEAEDLGVYYCFQASHVPPTFGGG

No constants are given. Whether binding was seen depends on the method and setting. A result given as binding can be weak or reduced; the word gives no strength.
